PMC10296663
These are yes or no findings as the source states them, for the method shown. Binding seen in cells or lysates may run through a third protein. Some binding calls cover weakened binding; strength is not graded here.

Amino acid sequences for entries named in this document (tags omitted).
UniProt Q86U44: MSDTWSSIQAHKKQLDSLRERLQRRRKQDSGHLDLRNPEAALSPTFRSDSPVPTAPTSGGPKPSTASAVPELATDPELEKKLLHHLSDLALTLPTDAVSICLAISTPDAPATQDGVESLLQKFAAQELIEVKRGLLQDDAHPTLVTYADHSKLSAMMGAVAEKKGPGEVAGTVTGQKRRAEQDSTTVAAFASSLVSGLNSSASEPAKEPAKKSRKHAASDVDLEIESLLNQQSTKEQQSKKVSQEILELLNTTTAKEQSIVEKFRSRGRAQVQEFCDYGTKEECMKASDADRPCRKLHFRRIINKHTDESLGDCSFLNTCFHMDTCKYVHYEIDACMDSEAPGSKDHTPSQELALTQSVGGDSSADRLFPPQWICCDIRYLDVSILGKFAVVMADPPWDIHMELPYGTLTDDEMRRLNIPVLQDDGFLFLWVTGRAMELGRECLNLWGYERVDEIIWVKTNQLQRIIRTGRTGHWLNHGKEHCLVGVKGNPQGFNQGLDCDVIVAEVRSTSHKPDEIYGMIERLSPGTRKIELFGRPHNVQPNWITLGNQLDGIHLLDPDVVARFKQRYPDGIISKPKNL

How the values were obtained:
[1] = target: METTL3 (human (endogenous in H1975)) (UniProt Q86U44); assay: co-IP; lysate of H1975^NivoSat cells (H1975 saturated with 0.1 μg/mL Nivolumab); IP with anti-METTL3 or control IgG on magnetic beads, overnight at 4 °C; lysis buffer 20 mM Tris-HCl pH 7.4, 150 mM NaCl, 1 mM EDTA, 1% Triton; western blot for METTL3 and KHDRBS3
[2] = target: METTL3 (human (endogenous in H1975)) (UniProt Q86U44); assay: condition: only H1975 cells without Nivolumab saturation; co-IP; lysate of H1975 cells without Nivolumab saturation; IP with anti-METTL3 or control IgG on magnetic beads, overnight at 4 °C; lysis buffer 20 mM Tris-HCl pH 7.4, 150 mM NaCl, 1 mM EDTA, 1% Triton; western blot for METTL3 and KHDRBS3

B1: KHDRBS3 (protein, UniProt O75525 1-346)
chain: MEEKYLPELMAEKDSLDPSFTHALRLVNQEIEKFQKGEGKDEEKYIDVVINKNMKLGQKVLIPVKQFPKFNFVGKLLGPRGNSLKRLQEETLTKMSILGKGSMRDKAKEEELRKSGEAKYFHLNDDLHVLIEVFAPPAEAYARMGHALEEIKKFLIPDYNDEIRQAQLQELTYLNGGSENADVPVVRGKPTLRTRGVPAPAITRGRGGVTARPVGVVVPRGTPTPRGVLSTRGPVSRGRGLLTPRARGVPPTGYRPPPPPPTQETYGEYDYDDGYGTAYDEQSYDSYDNSYSTPAQSGADYYDYGHGLSEETYDSYGQEEWTNSRHKAPSARTAKGVYRDQPYGRY
binding [1]: binds
binding [2]: no binding
